According to PubChem BioAssay AID638 (SRMLSC, 2007):
About 65 (5%) of roughly 1,300 compounds were called active.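 How the source made its calls: active means growth inhibition reaching a set limit at one or more tested doses; inactive means the rest.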 Some of the results follow. Potency and affinity values are given separately.

assay: growth inhibition of wild-type E. coli, dose response, BW25113 wild type, OD615 (AID 638); conditions: at 100 µM (top of the series) unless noted
Method in brief: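 assay system = wild-type Escherichia coli strain BW25113 growth | medium = Kanamycin-supplemented LB broth | measured by = optical density (absorbance) at 615 nm | timing = bacterial exposure to compound 20 h at 37 °C | doses = compound concentration series | measure = IC50 from 4-parameter logistic, bounds fixed 0–100% | controls = chloramphenicol 30 µM control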

Growth inhibition, inactive:
COc1ccc(-c2nc3oc4cc(OC)ccc4c(=O)c3c(=O)n2Cc2ccco2)cc1 -7.76%
O=C(Nc1nnc(-c2ccc3c(c2)CCCC3)o1)C1COc2ccccc2O1 (centres undefined) -7.51%
CC(=Nc1ccc(O)cc1)c1sc2ccccc2c1O -1.71%
COc1ccccc1-c1noc(CCC(=O)Nc2cccc(C(F)(F)F)c2)n1 16.2%
O=C(CCCSc1nc(-c2ccco2)cc(C(F)(F)F)n1)Nc1ccc2c(c1)OCO2 0.34%
CCc1ccccc1NS(=O)(=O)c1ccc2[nH]cc(C(=O)NCc3ccco3)c(=O)c2c1 -1.55%
COc1ccc(-c2cc(C(=O)N3CC4(C)CC3CC(C)(C)C4)no2)cc1OC (centres undefined) 6.72%
Cc1cc(=O)[nH]c(-n2nc(C)cc2C)n1 14.7%
Cc1c(C(=O)OCCOc2ccccc2)[nH]c2c1C(=O)CCC2 4.88%
COc1cccc(-c2nnc(NC(=O)c3ccc(S(=O)(=O)N4CCOCC4)cc3)o2)c1 -6.06%
N#Cc1nc(COc2ccc(Cl)cc2)oc1N1CCCCCC1 -0.12%
Cc1ccc(C)c(N2CCN(C(=O)c3ccc(NS(=O)(=O)c4c(C)noc4C)cc3)CC2)c1 -3%
COc1ccc2nc(SCC(=O)N(C)C3CCCCC3)c(C#N)cc2c1 -2.36%
N/C(=N/O)c1nc(N2CCCC2)nc(N(c2ccccc2)c2ccccc2)n1 -6.99%
CN1C(=O)C2(OCC(COc3ccc(Cl)cc3)O2)c2ccccc21 (centres undefined) -7.83%
Cc1cccc(OCCCCc2c(C)n[nH]c2C)c1C 15.9%
O=S(=O)(NC1CCCC1)c1ccc(S(=O)(=O)N(Cc2cccs2)CC2CCCO2)cc1 (centres undefined) -6.07%
C/C(O)=c1/ccc2cccc3nc(C)nc1c23 4.09%
O=C(Nc1ccc(C(F)(F)F)cc1)C1CCCN1S(=O)(=O)c1cccc2cccnc12 (centres undefined) -5.49%
O=C(Nc1nnc(C2CC2)s1)c1cc(-c2ccccc2)nn1-c1ccccc1 -12%
Cc1ccc(C)n1-n1c(C)nc2sc3c(c2c1=O)CCCCC3 -12.1%
COc1cccc(Cn2c(Oc3cccc(C)c3)nc3c2c(=O)n(C)c(=O)n3C)c1 -8.04%
OC(c1cccc(OCc2ccccc2)c1)c1nnc(-c2ccccc2)o1 (centres undefined) 7%
COc1ccc2[nH]c(=O)c(CN(C(=O)NC3CCCCC3)C3CCCCC3)cc2c1 -6.81%
CC(C)OCCCNc1ncnc2c1[nH]c1ccccc12 8.07%
CCOc1ccccc1N1CCN(Cc2ccc(Br)s2)CC1 -0.45%
Cc1cccc(NC(=O)c2cc(NC(=O)C3CCCCC3C(=O)O)ccc2N2CCCCC2)c1 (centres undefined) -4.25%
CCCc1cc(C(=O)N2CCN(c3ccccc3C)CC2)cs1 7.72%
COCCNc1nc(-n2nc(C)cc2C)nc2sc3c(c12)CCCC3 0.91%
CCOc1ccc2nc(NC(=O)C(CC)Sc3nc(C)cc(=O)[nH]3)sc2c1 (centres undefined) 2.47%
Cc1csc(NC(=O)c2cccc(Cn3nc(C)c(Br)c3C)c2)n1 -0.01%
O=C(COc1ccccc1)Nc1ccccc1N1CCCCC1 7.63%
COc1ccc(-c2nnc(NC(=O)c3ccc(S(=O)(=O)N4CCc5ccccc5C4)cc3)o2)cc1 -10.5%
O=C(N1CCN(c2ccccn2)CC1)N1c2ccccc2Sc2ccccc21 -20.2%
COc1ccccc1N1CCN(c2nc(C)nc3c2oc2ccccc23)CC1 -13.5%
COC(=O)c1ccsc1NC(=O)CN1CCN(c2ccc(F)cc2)CC1 -9.19%
Cc1ccc2oc(C(=O)NCc3ccc4c(c3)OCO4)c(C)c2c1 -0.78%
CCN(CC)c1nc(N)c2c(N)nc3c(c2c1C#N)CC(c1ccccc1)O3 (centres undefined) 12.4%
CCCOC(=O)c1ccc(-c2c(C)noc2-c2ccc(OC)cc2O)o1 14.1%
Cc1cc(C(=O)OCc2nc3ccccc3s2)c(C)o1 13.3%
C=C(C)COc1ccc(-c2nc(N)ncc2-c2ccc(OC)cc2)c(O)c1 9.95%
COc1ccccc1-c1cc(C(=O)NCc2ccccc2)no1 -0.45%
O=C(c1cc(-c2ccccc2)on1)N1CCN(Cc2ccc3c(c2)OCO3)CC1 7.5%
CCOC(=O)c1c(NC(=O)CN(CC)CC)sc2c1CCC2 11.8%
Clc1ccc(Cl)c(-c2nn3c(COc4ccccc4)nnc3s2)c1 1.16%
C/C(CCc1oc2ccccc2c1-c1ccc(C)o1)=N/O 6.34%
CC(C)(C)n1nnnc1C(c1cccs1)N(Cc1ccccc1)Cc1cccnc1 (centres undefined) 13.2%
O=C(CN(C1CC1)S(=O)(=O)c1ccc(S(=O)(=O)NC2CCCCC2)cc1)Nc1ccccc1 -16.4%
O=c1c(-c2nc3ccccc3o2)c2oc3ccccc3n2c2ccccc12 1.05%
CN(C)c1ccc(/C=N/n2ncc3ccccc32)cc1 -3.99%
CN(C1CCCCC1)S(=O)(=O)c1ccc(NC(=O)c2ccc(Br)o2)cc1 -6.35%
Cc1cccc(-c2cc3nc4c(c(N5CCOCC5)n3n2)CCCC4)c1 -0.27%
COc1ccc(C/C(O)=C(\C#N)c2nc3ccccc3s2)cc1 -2.95%
O=C(COc1cccc2ccccc12)N1CCN(c2ccccc2)CC1 -6.33%
Cc1[nH]n2c(=O)cc(C(C)(C)C)nc2c1-c1ccccc1 10.5%
Cn1c(NC(=O)c2ccccc2NC(=O)C(C)(C)C)nc2ccccc21 -18.3%
COc1ccc(NC(=O)c2ccc(Cl)c(S(=O)(=O)N3CCc4ccccc4C3)c2)cn1 -4.75%
CCOC(=O)c1sc2nc(CC(=O)OC)nc(N3CCN(c4ccccn4)CC3)c2c1C -12.8%
Cc1ccc2cc(C(c3nnnn3C3CCCC3)N(Cc3cccnc3)Cc3ccco3)c(=O)[nH]c2c1 (centres undefined) -6.03%

Grouped by structure: the compounds so far with an aryl methoxy group (14)
Growth inhibition, inactive:
COc1ccc(-c2nc3oc4cc(OC)ccc4c(=O)c3c(=O)n2Cc2ccco2)cc1 -7.76%
COc1ccccc1-c1noc(CCC(=O)Nc2cccc(C(F)(F)F)c2)n1 16.2%
COc1ccc(-c2cc(C(=O)N3CC4(C)CC3CC(C)(C)C4)no2)cc1OC (centres undefined) 6.72%
COc1cccc(-c2nnc(NC(=O)c3ccc(S(=O)(=O)N4CCOCC4)cc3)o2)c1 -6.06%
COc1ccc2nc(SCC(=O)N(C)C3CCCCC3)c(C#N)cc2c1 -2.36%
COc1cccc(Cn2c(Oc3cccc(C)c3)nc3c2c(=O)n(C)c(=O)n3C)c1 -8.04%
COc1ccc2[nH]c(=O)c(CN(C(=O)NC3CCCCC3)C3CCCCC3)cc2c1 -6.81%
COc1ccc(-c2nnc(NC(=O)c3ccc(S(=O)(=O)N4CCc5ccccc5C4)cc3)o2)cc1 -10.5%
COc1ccccc1N1CCN(c2nc(C)nc3c2oc2ccccc23)CC1 -13.5%
CCCOC(=O)c1ccc(-c2c(C)noc2-c2ccc(OC)cc2O)o1 14.1%
C=C(C)COc1ccc(-c2nc(N)ncc2-c2ccc(OC)cc2)c(O)c1 9.95%
COc1ccccc1-c1cc(C(=O)NCc2ccccc2)no1 -0.45%
COc1ccc(C/C(O)=C(\C#N)c2nc3ccccc3s2)cc1 -2.95%
COc1ccc(NC(=O)c2ccc(Cl)c(S(=O)(=O)N3CCc4ccccc4C3)c2)cn1 -4.75%

Reprinted at random: two compounds from above.
Growth inhibition, inactive:
Cc1c(C(=O)OCCOc2ccccc2)[nH]c2c1C(=O)CCC2 4.88%
Cc1cccc(NC(=O)c2cc(NC(=O)C3CCCCC3C(=O)O)ccc2N2CCCCC2)c1 (centres undefined) -4.25%
